In PubChem BioAssay AID1508600 (Functional Genomics Laboratory (NCATS/FGL), 2020):
The campaign covered roughly 53,000 sequences. About 3,700 (7%) were called active.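 How the source made its calls: active means gene knockdowns whose robust z-score for IL-1 alpha signal is at least 2 or at most -2, so actives lie on both sides; inactive means the rest.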 Some of the results follow.

Assay: Components of the Cytosolic LPS Sensing Pathway: Gene Identification via Genome-wide siRNA Screen;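 further: robust z of the log signal after scaling to non-targeting control siRNA wells of the plate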
Conditions: RAW264.7 macrophages, IL-1a HTRF, actives lie on both sides, screened at 100 nM (by protocol), cells primed 5 h with Pam3CSK4 first
Summary of the method: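 IL-1a HTRF of supernatants after 24 hour LipidA transfection of Pam3CSK4-primed (5 hours) RAW264.7 cells, 48h post-siRNA transfection (100 nM). Scores: percent of plate negative-control median, then log-based robust z-score.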

Sequence | z-score
GGUACCUGAGGAAAAGGUUTT against Nlrp2 | inactive: -1.51
CGGAUUUCAUGGCUCAAGATT against Gfm2 | inactive: -0.123
GCUAAGGACACGCUCUAUCTT against Sema5b | inactive: -0.0272
GCACUUAUGGUUUAGAUGUTT against Prdm8 | inactive: -0.127
GGUUGCACUCAUCUUAAAATT against Zfp9 | inactive: 1.59
CCAAUCAUGAUCUGGGCUCTT against Gng4 | inactive: 1.46
GCAAGCUGAACUACUUGAGTT against Ern1 | inactive: 0.425
GGUGAUCUGGACCAAGAUGTT against Lcp1 | inactive: -0.52
GGAUGCACAUAUUCAAGCCTT against Ssh1 | inactive: -0.138
GGAGCAGCGGGUUUAUUGUTT against Mfn2 | inactive: 0.167
GGCUUUGAUCAGCAUGAGCTT against Pak4 | active: -2.07
GGUUUGAGAAAUUGGACAUTT against Pou6f1 | active: 3.72
GGAAUAUCGGACUUUUUCATT against Mis18bp1 | inactive: 0.635
CCCUGACAGAUUAAUUUCATT against Zbed3 | inactive: -0.558
GCAUUUAAAAUACACGGUGTT against Arg1 | inactive: 0.264
GGCAUAGUUGCUGUUCUCUTT against Slc9a9 | inactive: -0.871
CGGAGUGUACCAUCUACACTT against Agpat4 | inactive: 0.193
GGCGGAAAUUGUGAAGAGGTT against Tle5 | inactive: -0.497
CGCUUGCUCGGAUUGACAATT against Bpifb3 | inactive: 0.688
AUGCGUUUGUCAUGAAUUUTT against Rnf182 | inactive: -1.23
GGAGCUUAGUUACCCACAUTT against Drg2 | inactive: -0.144
GGCAUAUCAGACAACAAGATT against Tcte1 | inactive: -1.25
GGCGAAUGAAGGUUUCUGGTT against Pex11b | inactive: -0.581
GGACUUCUCAUCCUAUUUATT against Iah1 | inactive: -0.638
GGGAGAGACUAACUUGUUUTT against Hpvc2 | inactive: 0.0623
GGCUCAGACCCUGUACUAATT against Selenof | inactive: 1.77
GGAUCAGUAAAGCAAAAAUTT against Lsamp | inactive: -0.22

Three consecutive entries out of the list so far, quoted:
Sequence | z-score
GGGAGAGACUAACUUGUUUTT against Hpvc2 | inactive: 0.0623
GGCUCAGACCCUGUACUAATT against Selenof | inactive: 1.77
GGAUCAGUAAAGCAAAAAUTT against Lsamp | inactive: -0.22

Going on with the list:

Sequence | z-score
CCCAUGUAAGGAUGUGUCGTT against Frmd5 | inactive: 0.761
GGUAUUUGUGCCAAUUGCCTT against Ccr6 | inactive: -0.302
GCCUCGUAUAGAGAAGUGATT against Gnat1 | inactive: -1.91
GGAGAUCCAAGAGAAAUUUTT against Csf3r | inactive: 1.18
GGAAGAAACAUGUAUCAUGTT against Tff1 | inactive: 0.556
GCAUAAUGACCAUGUCUGUTT against 1700001J03Rik | inactive: -0.337
GGCAAUUUCAGACAAGUAUTT against Grhl1 | inactive: 0.892
GGUUUUAGAUAUUAACCUGTT against Hnrnpc | inactive: 0.659
GGGUAAUGCUGACUACAGGTT against BC055324 | inactive: 0.579
GGUGAGACGUGCUUCAAAUTT against Smtnl2 | inactive: 0.172
GGGCUCUGGUGGAUGAAUUTT against Cnpy2 | inactive: 0.801
GCAUGAUGAUUCGUCAGACTT against Ero1a | inactive: 0.245
GGCCUCCUAAGAGGACUCATT against Dach1 | inactive: -1.11
GGACAACAGAAGACCUGUUTT against Nhsl1 | inactive: -0.611
GGUACAGUUAAAGAAUCUGTT against Ahsa2 | inactive: 0.375
CCAAGAAGAGUUAUGUAAUTT against Depdc1a | inactive: -1.33
GGAGUUGGGUAUCAUUAAGTT against Gphb5 | inactive: -0.152
GGUAAUUCAGUCUUAUACATT against Pcdhb21 | active: 3.2
GGUUUAGCUGCAUUAAAAGTT against Lrrc27 | inactive: 0.956
GGACAUGCUCUAUAAGAAGTT against Pabpc5 | inactive: -0.642
GGCAUGUCUACACACCAUCTT against Ankra2 | inactive: -0.106
GGCAAGAGACAGAAUGAUATT against Ppargc1a | inactive: -1.35
GGAAGUGAGGGAGAACAUCTT against Fchsd1 | inactive: -1.56
GGAUGCUGUAACACUUUAUTT against Bcl6 | active: 3.31
GCAUUACUGAUUCUUUCUUTT against Vmn1r199 | inactive: -0.771
GCCUCUUAAUGCUUUUGUATT against Sfxn1 | inactive: -0.272
GGAAAUGUGGUAAUUCCGATT against Cd44 | inactive: 0.256
